# Literature values as cited in US20090005385A1, “Treatment or Prevention of Cancer or Cardiovascular Disease with Methenyltetrahydrofolate Synthetases” (CORNELL RESEARCH FOUNDATION, INC., priority 2004, published 2009).
# At least one structure is not confirmed: it was looked up by name or label, or the drawing left a doubt.
# System: several different cell lines
# Details: read-out: EC50 inhibition of cell growth; cited from earlier work
structure (smiles),measurement,value
"Nc1nc2c(c(=O)[nH]1)C[C@@H](CCc1ccc(C(=O)N[C@@H](CCC(=O)O)C(=O)O)cc1)CN2 [DDATHF, 5,10-dideazatetrahydrofolate]",EC50,10 to 30 nM
